Values from PubChem BioAssay AID686938 (Drosophila RNAi Screening Center, 2013).
Purpose: 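Fly genes required for calcium entry once internal stores are emptied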 (primary screen). System: Drosophila S2R+ cells. Knock-down reagent: long dsRNA against Drosophila genes, about 0.25 µg dsRNA per well, roughly 10,000 cells. Time to read-out: 5 days of knock-down before the calcium assay. Treatment: thapsigargin (SERCA pump blocker) to empty calcium stores; entry signal taken 4 min after adding it. Read-out: 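Duplicate raw fluo-4 intensities per well from a plate reader, at rest and four minutes after thapsigargin emptied calcium stores; entry-to-rest ratio filled for only some wells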. Scale: calcium entry signal: higher = stronger calcium signal after store depletion; resting calcium signal: higher = higher resting calcium signal. Call rule: 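Called when the plate z-score of the entry-to-rest ratio, mean of duplicates, falls below −3; wells with low overall dye signal (Fmax z below −2) or more than five off-targets excluded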. Meaning of the calls: active = strongly reduced calcium entry; inactive = no strong reduction.
In all, the deposit lists about 23,000 reagents; shown is a random part of those that have a named target and a result. In the full data, 75 (0.33%) were called active. 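Raw plate signals without normalisation; calls rest on plate z-scores that were not deposited; ratio present for only 364 wells.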 Not stated in the record: the dose of the treatment.

CG7668 [DRSC10901]: calcium entry signal, replicate 1 (fluorescence units) = 3.36e7; calcium entry signal, replicate 2 (fluorescence units) = 4.51e7; resting calcium signal, replicate 1 (fluorescence units) = 1.60e7; resting calcium signal, replicate 2 (fluorescence units) = 3.01e7; activity call = inactive
Cdc7 [DRSC18428]: calcium entry signal, replicate 1 (fluorescence units) = 4.01e7; calcium entry signal, replicate 2 (fluorescence units) = 2.78e7; resting calcium signal, replicate 1 (fluorescence units) = 1.79e7; resting calcium signal, replicate 2 (fluorescence units) = 1.36e7; activity call = inactive
Cdc7 [DRSC18429]: calcium entry signal, replicate 1 (fluorescence units) = 2.59e7; calcium entry signal, replicate 2 (fluorescence units) = 3.64e7; resting calcium signal, replicate 1 (fluorescence units) = 1.20e7; resting calcium signal, replicate 2 (fluorescence units) = 1.58e7; activity call = inactive
Cdc7 [DRSC22133]: calcium entry signal, replicate 1 (fluorescence units) = 1.86e7; calcium entry signal, replicate 2 (fluorescence units) = 2.20e7; resting calcium signal, replicate 1 (fluorescence units) = 1.02e7; resting calcium signal, replicate 2 (fluorescence units) = 1.18e7; activity call = inactive
CG32295 [DRSC23259]: calcium entry signal, replicate 1 (fluorescence units) = 3.77e7; calcium entry signal, replicate 2 (fluorescence units) = 3.08e7; resting calcium signal, replicate 1 (fluorescence units) = 2.19e7; resting calcium signal, replicate 2 (fluorescence units) = 1.27e7; activity call = inactive
mars [DRSC06656]: calcium entry signal, replicate 1 (fluorescence units) = 2.76e7; calcium entry signal, replicate 2 (fluorescence units) = 5.23e7; resting calcium signal, replicate 1 (fluorescence units) = 1.31e7; resting calcium signal, replicate 2 (fluorescence units) = 2.30e7; activity call = inactive
Gdi [DRSC03330]: calcium entry signal, replicate 1 (fluorescence units) = 5.04e7; resting calcium signal, replicate 1 (fluorescence units) = 2.46e7; activity call = inactive
PlexA [DRSC17220]: calcium entry signal, replicate 1 (fluorescence units) = 3.39e7; calcium entry signal, replicate 2 (fluorescence units) = 4.52e7; resting calcium signal, replicate 1 (fluorescence units) = 1.56e7; resting calcium signal, replicate 2 (fluorescence units) = 1.96e7; activity call = inactive
COX2 (retired record) [DRSC21276]: calcium entry signal, replicate 1 (fluorescence units) = 3.20e7; calcium entry signal, replicate 2 (fluorescence units) = 3.73e7; resting calcium signal, replicate 1 (fluorescence units) = 1.88e7; resting calcium signal, replicate 2 (fluorescence units) = 1.78e7; activity call = inactive
CG5934 [DRSC15922]: calcium entry signal, replicate 1 (fluorescence units) = 3.99e7; calcium entry signal, replicate 2 (fluorescence units) = 6.22e7; resting calcium signal, replicate 1 (fluorescence units) = 2.01e7; resting calcium signal, replicate 2 (fluorescence units) = 2.34e7; activity call = inactive
CG13060 [DRSC09943]: calcium entry signal, replicate 1 (fluorescence units) = 3.82e7; calcium entry signal, replicate 2 (fluorescence units) = 3.82e7; resting calcium signal, replicate 1 (fluorescence units) = 1.65e7; resting calcium signal, replicate 2 (fluorescence units) = 1.83e7; activity call = inactive
CG15711 [DRSC06582]: calcium entry signal, replicate 1 (fluorescence units) = 5.47e7; calcium entry signal, replicate 2 (fluorescence units) = 4.35e7; resting calcium signal, replicate 1 (fluorescence units) = 2.24e7; resting calcium signal, replicate 2 (fluorescence units) = 2.16e7; activity call = inactive
CG15617 [DRSC06570]: calcium entry signal, replicate 1 (fluorescence units) = 5.50e7; calcium entry signal, replicate 2 (fluorescence units) = 4.45e7; resting calcium signal, replicate 1 (fluorescence units) = 2.72e7; resting calcium signal, replicate 2 (fluorescence units) = 1.90e7; activity call = inactive
Ddx56 [DRSC20567]: calcium entry signal, replicate 1 (fluorescence units) = 2.24e7; calcium entry signal, replicate 2 (fluorescence units) = 1.90e7; resting calcium signal, replicate 1 (fluorescence units) = 1.31e7; resting calcium signal, replicate 2 (fluorescence units) = 1.06e7; activity call = inactive

Laid out differently: entries from further up.
target | DRSC id | calcium entry signal, replicate 1 (fluorescence units) | calcium entry signal, replicate 2 (fluorescence units) | resting calcium signal, replicate 1 (fluorescence units) | resting calcium signal, replicate 2 (fluorescence units) | activity call
Cdc7 | DRSC22133 | 1.86e7 | 2.20e7 | 1.02e7 | 1.18e7 | inactive
CG32295 | DRSC23259 | 3.77e7 | 3.08e7 | 2.19e7 | 1.27e7 | inactive
